The text below walks through data of patent US10280229B2 (MEDSHINE DISCOVERY INC., priority 2014, dated 2019).

This data set in a line: general procedure: solution-phase peptide synthesis; HOBt/pyridine (4-nitrophenyl carbonate); HATU/DIEA. To be noted: conjugation step.

In the case of MTM H-Val-Cit-PABO(CO)-MMAE, the conjugation yield stood at 10.4%. Turning to (S)-MTMH-Val-Cit-PABO(CO)-MMAE, the conjugation yield came out at 30% yield.
